Reference: PubChem BioAssay AID188 (DTP/NCI, 2004)
The mice bore no tumour; each value counts animals alive of those treated. Survivors were counted at the toxicity check, usually on the fifth day, unless a day is given; later deaths do not show. Schedules are NCI's codes, taken here to give the interval after Q, in days (D) or hours (H), and the number of doses after X.

Test system: CD2F1 mice, nontumored, toxicity/survival
Assay: NCI In Vivo Anticancer Drug Screen. Data for tumor model Nontumored Animals (Toxicity Test) in CD2F1 (CDF1) mice

## Cc1[nH]c(=O)[nH]c(=O)c1N(CCF)CCCl
dose: 32.0 mg/kg/injection, schedule: Q03HX008 (oral), vehicle: acid diluted with saline
  survivor count: 0 of 8
dose: 32.0 mg/kg/injection, schedule: Q03HX008 (oral), vehicle: other
  survivor count: 0 of 8
dose: 32.0 mg/kg/injection, schedule: Q03HX016 (oral), vehicle: acid diluted with saline
  survivor count: 3 of 8
dose: 32.0 mg/kg/injection, schedule: Q03HX016 (oral), vehicle: other
  survivor count: 0 of 8
dose: 32.0 mg/kg/injection, schedule: Q03HX024 (oral), vehicle: acid diluted with saline
  survivor count: 0 of 8
dose: 32.0 mg/kg/injection, schedule: Q03HX024 (oral), vehicle: other
  survivor count: 0 of 8
dose: 32.0 mg/kg/injection, schedule: Q04DX003 (ip), vehicle: acid diluted with saline
  survivor count: 8 of 8
dose: 32.0 mg/kg/injection, schedule: Q04DX003 (oral), vehicle: acid diluted with saline
  survivor count: 8 of 8
dose: 32.0 mg/kg/injection, schedule: Q04DX003 (oral), vehicle: other
  survivor count: 8 of 8
dose: 32.0 mg/kg/injection, schedule: Q08DX002 (ip), vehicle: acid diluted with saline
  survivor count: 8 of 8
dose: 32.0 mg/kg/injection, schedule: Q08DX002 (oral), vehicle: other
  survivor count: 8 of 8
dose: 64.0 mg/kg/injection, schedule: Q01DX001 (ip), vehicle: acid diluted with saline
  survivor count: 8 of 8
dose: 64.0 mg/kg/injection, schedule: Q01DX001 (oral), vehicle: acid diluted with saline
  survivor count: 8 of 8
dose: 64.0 mg/kg/injection, schedule: Q01DX001 (oral), vehicle: other
  survivor count: 1 of 8
dose: 64.0 mg/kg/injection, schedule: Q01DX001 (sc), vehicle: acid diluted with saline
  survivor count: 8 of 8
dose: 64.0 mg/kg/injection, schedule: Q01DX009 (ip), vehicle: acid diluted with saline
  survivor count: 1 of 8
dose: 64.0 mg/kg/injection, schedule: Q01DX009 (ip), vehicle: saline with Tween-80
  survivor count: 0 of 8
dose: 64.0 mg/kg/injection, schedule: Q01DX009 (oral), vehicle: acid diluted with saline
  survivor count: 8 of 8
dose: 64.0 mg/kg/injection, schedule: Q01DX009 (oral), vehicle: other
  survivor count: 0 of 8
dose: 64.0 mg/kg/injection, schedule: Q03HX008 (oral), vehicle: acid diluted with saline
  survivor count: 0 of 8
dose: 64.0 mg/kg/injection, schedule: Q03HX008 (oral), vehicle: other
  survivor count: 0 of 8
dose: 64.0 mg/kg/injection, schedule: Q03HX016 (oral), vehicle: acid diluted with saline
  survivor count: 0 of 8
dose: 64.0 mg/kg/injection, schedule: Q03HX016 (oral), vehicle: other
  survivor count: 0 of 8
dose: 64.0 mg/kg/injection, schedule: Q03HX024 (oral), vehicle: other
  survivor count: 0 of 8
dose: 64.0 mg/kg/injection, schedule: Q04DX003 (ip), vehicle: acid diluted with saline
  survivor count: 8 of 8
dose: 64.0 mg/kg/injection, schedule: Q04DX003 (oral), vehicle: acid diluted with saline
  survivor count: 8 of 8
dose: 64.0 mg/kg/injection, schedule: Q04DX003 (oral), vehicle: other
  survivor count: 7 of 8
dose: 64.0 mg/kg/injection, schedule: Q08DX002 (ip), vehicle: acid diluted with saline
  survivor count: 8 of 8
dose: 64.0 mg/kg/injection, schedule: Q08DX002 (oral), vehicle: acid diluted with saline
  survivor count: 8 of 8
dose: 64.0 mg/kg/injection, schedule: Q08DX002 (oral), vehicle: other
  survivor count: 6 of 8
dose: 128.0 mg/kg/injection, schedule: Q01DX001 (ip), vehicle: acid diluted with saline
  survivor count: 6 of 8
dose: 128.0 mg/kg/injection, schedule: Q01DX001 (oral), vehicle: acid diluted with saline
  survivor count: 8 of 8
dose: 128.0 mg/kg/injection, schedule: Q01DX001 (oral), vehicle: other
  survivor count: 1 of 8
dose: 128.0 mg/kg/injection, schedule: Q01DX001 (sc), vehicle: acid diluted with saline
  survivor count: 8 of 8
dose: 128.0 mg/kg/injection, schedule: Q01DX009 (ip), vehicle: acid diluted with saline
  survivor count: 0 of 8
dose: 128.0 mg/kg/injection, schedule: Q01DX009 (ip), vehicle: saline with Tween-80
  survivor count: 0 of 8
dose: 128.0 mg/kg/injection, schedule: Q01DX009 (oral), vehicle: acid diluted with saline
  survivor count: 8 of 8
dose: 128.0 mg/kg/injection, schedule: Q01DX009 (oral), vehicle: other
  survivor count: 1 of 8
dose: 128.0 mg/kg/injection, schedule: Q03HX008 (oral), vehicle: acid diluted with saline
  survivor count: 0 of 8
dose: 128.0 mg/kg/injection, schedule: Q03HX008 (oral), vehicle: other
  survivor count: 0 of 8
dose: 128.0 mg/kg/injection, schedule: Q03HX016 (oral), vehicle: acid diluted with saline
  survivor count: 0 of 8
dose: 128.0 mg/kg/injection, schedule: Q03HX016 (oral), vehicle: other
  survivor count: 0 of 8
dose: 128.0 mg/kg/injection, schedule: Q04DX003 (oral), vehicle: acid diluted with saline
  survivor count: 8 of 8
dose: 128.0 mg/kg/injection, schedule: Q04DX003 (oral), vehicle: other
  survivor count: 0 of 8
dose: 128.0 mg/kg/injection, schedule: Q08DX002 (ip), vehicle: acid diluted with saline
  survivor count: 8 of 8
dose: 128.0 mg/kg/injection, schedule: Q08DX002 (oral), vehicle: acid diluted with saline
  survivor count: 8 of 8
dose: 128.0 mg/kg/injection, schedule: Q08DX002 (oral), vehicle: other
  survivor count: 0 of 8
dose: 256.0 mg/kg/injection, schedule: Q01DX001 (ip), vehicle: acid diluted with saline
  survivor count: 0 of 8
dose: 256.0 mg/kg/injection, schedule: Q01DX001 (oral), vehicle: acid diluted with saline
  survivor count: 8 of 8
dose: 256.0 mg/kg/injection, schedule: Q01DX001 (oral), vehicle: other
  survivor count: 0 of 8
dose: 256.0 mg/kg/injection, schedule: Q01DX001 (sc), vehicle: acid diluted with saline
  survivor count: 8 of 8
dose: 256.0 mg/kg/injection, schedule: Q01DX009 (oral), vehicle: other
  survivor count: 0 of 8
dose: 256.0 mg/kg/injection, schedule: Q04DX003 (oral), vehicle: acid diluted with saline
  survivor count: 8 of 8
dose: 256.0 mg/kg/injection, schedule: Q04DX003 (oral), vehicle: other
  survivor count: 0 of 8
dose: 256.0 mg/kg/injection, schedule: Q08DX002 (oral), vehicle: acid diluted with saline
  survivor count: 8 of 8
dose: 256.0 mg/kg/injection, schedule: Q08DX002 (oral), vehicle: other
  survivor count: 0 of 8
dose: 512.0 mg/kg/injection, schedule: Q01DX001 (oral), vehicle: acid diluted with saline
  survivor count: 8 of 8
dose: 512.0 mg/kg/injection, schedule: Q01DX001 (oral), vehicle: other
  survivor count: 0 of 8
dose: 512.0 mg/kg/injection, schedule: Q04DX003 (oral), vehicle: other
  survivor count: 0 of 8
dose: 512.0 mg/kg/injection, schedule: Q08DX002 (oral), vehicle: acid diluted with saline
  survivor count: 3 of 8
dose: 512.0 mg/kg/injection, schedule: Q08DX002 (oral), vehicle: other
  survivor count: 0 of 8
dose: 1024.0 mg/kg/injection, schedule: Q01DX001 (oral), vehicle: acid diluted with saline
  survivor count: 0 of 8
dose: 1024.0 mg/kg/injection, schedule: Q01DX001 (oral), vehicle: other
  survivor count: 0 of 8
dose: 1024.0 mg/kg/injection, schedule: Q08DX002 (oral), vehicle: acid diluted with saline
  survivor count: 0 of 8
dose: 1024.0 mg/kg/injection, schedule: Q08DX002 (oral), vehicle: other
  survivor count: 0 of 8
